# Experimental data as given in the supplement of paper PMC9578143, “Small-Molecule Ebselen Binds to YTHDF Proteins Interfering with the Recognition of N^6-Methyladenosine-Modified RNAs” (ACS Pharmacology & Translational Science, 2022).
# This is one part of the list. Plates or batches differ in their baseline, so values are only roughly comparable.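 Hits were defined as a z-score below −3.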
# Target: T1, YTHDF1 YTH domain (aa 365-554) (UniProt Q9BYJ9)
# T1 sequence (whole entry): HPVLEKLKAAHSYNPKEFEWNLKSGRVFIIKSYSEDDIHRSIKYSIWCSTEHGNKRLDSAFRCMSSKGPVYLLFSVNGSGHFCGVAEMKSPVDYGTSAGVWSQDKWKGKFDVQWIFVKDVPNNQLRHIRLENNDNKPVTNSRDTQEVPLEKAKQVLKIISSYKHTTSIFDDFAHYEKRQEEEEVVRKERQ
# Assay: tryptophan fluorescence intensity z-score (mean); higher = higher fluorescence, less quenching (negative = binding / quenching)
# Conditions: 10 µM
row,Compound,tryptophan fluorescence intensity z-score
1,O=C1C=C2C(=CCOC2O)O1 (centres undefined) (plate: M 19-20),inactive: 0.247
2,CC1=C2[C@H]3OC(=O)[C@@H](C)[C@@H]3CC[C@@]2(C)C=CC1=O (plate: M 17-18),inactive: 0.239
3,CCC(N)C(O)c1ccc(O)c(O)c1 (centres undefined) (plate: M 9-10),inactive: 0.658
4,Oc1cc(Cl)ccc1Oc1ccc(Cl)cc1Cl (plate: M 11-12),inactive: -0.353
5,O=C1CCCN1CC#CCN1CCCC1 (plate: M 21-22),inactive: 0.321
6,COC(=O)C(c1ccccc1)C1CCCCN1 (centres undefined) (plate: M 11-12),inactive: 0.294
7,C[C@H]1C(=O)O[C@@H]2CCN3CC=C(COC(=O)[C@](C)(O)[C@]1(C)O)[C@H]23 (plate: M 19-20),inactive: 0.683
8,CC(C)=CCCC1(C)C=Cc2c(O)c3c(c(CC=C(C)C)c2O1)OC12C(=CC4CC1C(C)(C)OC2(C/C=C(/C)C(=O)O)C4O)C3=O (centres undefined) (plate: M 15-16),inactive: 0.0763
9,COC[C@]12CN(C=O)[C@@H]3[C@@H]4[C@H](OC)[C@H]1[C@@]3([C@@H](OC)C[C@H]2O)[C@@H]1C[C@@]2(O)[C@H](OC(=O)c3ccccc3)[C@@H]1[C@]4(OC(C)=O)[C@@H](O)[C@@H]2OC (plate: M 13-14),inactive: 0.342
10,O=C(O)COc1cc(Cl)c(Cl)cc1Cl (plate: M 23-24),inactive: 0.0654
11,CO[C@]12C[C@@H](COC(=O)c3cncc(Br)c3)CN(C)[C@@H]1Cc1cn(C)c3cccc2c13 (plate: M 7-8),inactive: -0.2
12,COc1cc2c(cc1OC)[C@@H]1C(=O)c3ccc4oc(C(C)C)cc4c3O[C@@H]1CO2 (plate: M 15-16),inactive: 0.0259
13,O=C(O)CCC1NCC2CC1CN1CCCCC21 (centres undefined) (plate: M 19-20),inactive: 0.072
14,C[N+]12CCC(CC1)C(OC(=O)C(O)(c1ccccc1)c1ccccc1)C2 (centres undefined) (plate: M 1-2),inactive: -0.11
15,O=C1CCC[C@@H]2[C@H]3C[C@@H](CN12)[C@@H]1CCCCN1C3.[O-][Cl+3]([O-])([O-])O (plate: M 19-20),inactive: 0.289
16,CC(CC(C(N)=O)(c1ccccc1)c1ccccc1)N(C)C (centres undefined) (plate: M 11-12),inactive: 0.412
17,COc1cc2c(cc1-c1cc3cc4ccoc4cc3oc1=O)OCO2 (plate: M 15-16),inactive: 0.965
18,O=c1ccc2cc(O[C@@H]3OC(CO)[C@@H](O)[C@@H](O)C3O)c(O)cc2o1 (some centres undefined) (plate: M 21-22),inactive: 0.0448
19,CN(C)C(=S)SSC(=S)N(C)C (plate: M 9-10),inactive: -1.48
20,CC(C)C[C@H](CN)CC(=O)O (plate: M 11-12),inactive: -0.496
21,O=C1NC(=O)C(=O)C(=O)N1 (plate: M 21-22),inactive: 0.738
22,CC(C)(C)NCC(O)c1ccccc1Cl (centres undefined) (plate: M 23-24),inactive: 0.664
23,CC(C)(C)C(=O)C(Oc1ccc(Cl)cc1)n1cncn1 (centres undefined) (plate: M 23-24),inactive: 0.123

row,Compound,tryptophan fluorescence intensity z-score
1,CC[C@H]1CN2CCc3cc(OC)c(OC)cc3[C@@H]2C[C@@H]1C[C@H]1NCCc2cc(OC)c(OC)cc21 (plate: M 3-4),inactive: -0.216
2,CNC(C)C(O)c1ccccc1 (centres undefined) (plate: M 5-6),inactive: -0.0927
3,Cc1ccc(O)cc1.Cc1cccc(O)c1.Cc1ccccc1O (plate: M 1-2),inactive: 0.195
4,C[C@@H]1CC[C@H]2[C@@H](C)C(=O)O[C@@H]3O[C@@]4(C)CC[C@@H]1[C@]32OO4 (plate: M 19-20),inactive: 0.636
5,CC[C@H]1[C@@H]2C[C@H]3[C@@H]4N(C)c5ccccc5[C@]45C[C@@H]([C@@H]2[C@H]5O)N3[C@@H]1O (plate: M 17-18),inactive: 0.994
6,COc1ccc(C[C@H]2NC[C@H](O)[C@H]2OC(C)=O)cc1 (plate: M 19-20),inactive: 0.0321
7,CC1(C)N([O-])[N+](=O)C1(C)Br (centres undefined) (plate: M 23-24),inactive: -0.454
8,COc1ccc2c(c1)[nH]c1c(C)nccc12 (plate: M 17-18),inactive: -0.451
9,O=C1c2ccccc2C(=O)c2ccccc21 (plate: M 21-22),inactive: 0.0533
10,CNC(C)[C@H](O)c1ccccc1 (some centres undefined) (plate: M 3-4),inactive: -0.26
11,C[C@@H](CO)NC(=O)[C@@H]1C=C2c3cccc4[nH]cc(c34)C[C@H]2N(C)C1 (plate: M 3-4),inactive: -0.182
12,CN1CCN(C(=O)OC2c3nccnc3C(=O)N2c2ccc(Cl)cn2)CC1 (centres undefined) (plate: M 15-16),inactive: 0.508
13,C[C@]12CC[C@H](O)C[C@H]1CC[C@@H]1[C@@H]2C[C@@H](O)[C@]2(C)[C@@H](C3=CC(=O)OC3)CC[C@]12O (plate: M 15-16),inactive: 0.676
14,NC(=O)C[S+]([O-])C(c1ccccc1)c1ccccc1 (centres undefined) (plate: M 11-12),inactive: -0.731
15,COc1c2c(cc3c1OCO3)CC[N+](C)=C2 (plate: M 15-16),inactive: 0.327
16,Cc1cccc(C)c1NC1=NCCCS1 (plate: M 7-8),inactive: -0.0743
17,O=P1(NCCCl)OCCCN1CCCl (centres undefined) (plate: M 11-12),inactive: 0.632
18,C=C(C)[C@@H]1[C@H]2OC(=O)[C@@H]1[C@]1(O)C[C@H]3O[C@]34C(=O)O[C@H]2[C@]14C (plate: M 17-18),inactive: 0.318
19,Oc1ccc(Cl)cc1 (plate: M 3-4),inactive: 0.167
20,CC(=O)OC1CCC23C(=O)OC45CCC(C6=CC(=O)OC6)C4(C)CCC2C5CCC3(O)C1 (centres undefined) (plate: M 15-16),inactive: 0.508
21,NC(=O)CN1CCCC1=O (plate: M 7-8),inactive: 0.0553
22,CC(C)CC(N(C)C)C1(c2ccc(Cl)cc2)CCC1 (centres undefined) (plate: M 9-10),inactive: -0.234
23,O=C([O-])c1ccccc1-c1c2cc(Br)c(=O)cc-2oc2[c]([Hg+])c([O-])c(Br)cc12.[Na+].[Na+].[OH-] (plate: M 5-6),inactive: -1.12

row,Compound,tryptophan fluorescence intensity z-score
1,N#C/C(=C\c1cccc(O)c1)C(=O)O [alpha-CYANO-3-HYDROXYCINNAMICACID] (plate: M 21-22),inactive: -0.255
2,CC(=O)O[C@@H]1C[C@@]2(C)[C@H](c3ccoc3)C[C@H]3O[C@]32[C@]2(C)C(=O)C(O)=C3C(C)(C)C(=O)C=C[C@]3(C)[C@@H]12 (plate: M 13-14),inactive: 0.582
3,C#C[C@]1(O)CC[C@H]2[C@@H]3CCC4=CC(=O)CC[C@]4(C)[C@H]3CC[C@@]21C (plate: M 7-8),inactive: 0.404
4,CC(C)[N+](C)(CCC(C(N)=O)(c1ccccc1)c1ccccc1)C(C)C (plate: M 3-4),inactive: 0.0273
5,C[C@]12CC[C@H]3[C@@H](CC[C@]4(O)C[C@@H](O)CC[C@]34C=O)[C@@]1(O)CC[C@@H]2C1=CC(=O)OC1 (plate: M 13-14),inactive: 0.527
6,O=C1C=CC(=O)c2c(O)cccc21 (plate: M 17-18),inactive: 0.072
7,COc1ccc2c(c1)[C@]13CCCC[C@@H]1[C@H](C2)N(C)CC3 (plate: M 1-2),inactive: 0.754
8,C=C[C@H]1CN2CC[C@H]1C[C@H]2[C@H](O)c1ccnc2ccccc12 (plate: M 5-6),inactive: -0.129
9,C[C@H]1O[C@@H](O[C@H]2[C@@H](O)C[C@H](O[C@H]3[C@@H](O)C[C@H](O[C@H]4CC[C@@]5(C)[C@H](CC[C@@H]6[C@@H]5CC[C@]5(C)[C@@H](C7=CC(=O)OC7)[C@@H](O)C[C@]65O)C4)O[C@@H]3C)O[C@@H]2C)C[C@H](O)[C@@H]1O (plate: M 17-18),inactive: 0.442
10,CC1=NCCc2c1[nH]c1cc(O)ccc21 (plate: M 17-18),inactive: -0.156
11,CSc1nc(NC(C)C)nc(NC(C)C)n1 (plate: M 23-24),inactive: 0.848
12,COc1cc(OC)c2c(c1)O[C@H](c1ccc(OC)c(OC)c1)[C@@H](O)C2 (plate: M 15-16),inactive: 0.561
13,C=CC[C@]1(O)CC[C@H]2[C@@H]3CCC4=CC(=O)CCC4=C3C=C[C@@]21C (plate: M 11-12),inactive: -0.411
14,OC[C@@H]1CCCN2CCCC[C@H]12 (plate: M 19-20),inactive: 0.323
15,C1CCc2nnnn2CC1 (plate: M 13-14),inactive: 0.659
16,CC(Cc1ccc(O)cc1)NCC(O)c1cc(O)cc(O)c1 (centres undefined) (plate: M 7-8),inactive: -0.0761
17,C=C[C@H]1CN2CC[C@H]1C[C@@H]2[C@@H](O)c1ccnc2ccccc12 (plate: M 5-6),inactive: 0.121
18,CC(C)N(CCC(C(N)=O)(c1ccccc1)c1ccccn1)C(C)C (centres undefined) (plate: M 3-4),inactive: -0.5
19,CC[C@@]1(O)C[C@H](O[C@H]2C[C@H](N(C)C)[C@H](O)[C@H](C)O2)c2c(cc3c(c2O)C(=O)c2c(O)cccc2C3=O)[C@H]1C(=O)OC (plate: M 15-16),inactive: 0.583
20,C[C@H](N)[C@H](O)c1ccc(O)c(O)c1 (plate: M 3-4),inactive: 0.118
21,O=[N+]([O-])O[C@@H]1CO[C@H]2[C@@H]1OC[C@@H]2O (plate: M 9-10),inactive: -0.101
22,OC1CCCCC1N1CCC(c2ccccc2)CC1 (centres undefined) (plate: M 13-14),inactive: 1.03
23,N[C@@H](Cc1ccc(N(CCCl)CCCl)cc1)C(=O)O (plate: M 3-4),inactive: 0.0419

# A run of entries from the list above, as a working copy:
row,Compound,tryptophan fluorescence intensity z-score
11,CSc1nc(NC(C)C)nc(NC(C)C)n1 (plate: M 23-24),inactive: 0.848
12,COc1cc(OC)c2c(c1)O[C@H](c1ccc(OC)c(OC)c1)[C@@H](O)C2 (plate: M 15-16),inactive: 0.561
13,C=CC[C@]1(O)CC[C@H]2[C@@H]3CCC4=CC(=O)CCC4=C3C=C[C@@]21C (plate: M 11-12),inactive: -0.411
14,OC[C@@H]1CCCN2CCCC[C@H]12 (plate: M 19-20),inactive: 0.323
15,C1CCc2nnnn2CC1 (plate: M 13-14),inactive: 0.659
16,CC(Cc1ccc(O)cc1)NCC(O)c1cc(O)cc(O)c1 (centres undefined) (plate: M 7-8),inactive: -0.0761
